At least one compound was matched to its structure with a doubt left.
Legend:
[1] = system: “double transgenic” animals of the line MR 27; assay: Reversibility of the pathological phenotype under doxycycline in established disease; format: in vivo, mice
[2] = system: “double transgenic” animals (lines MR 27 and MR 17); assay: Blockage of the establishment of the pathological phenotype by continuous doxycycline from birth/gestation; format: in vivo, mice
[3] = line MR 27 aged two months, doxycycline 2 mg/ml in drinking water for one month

For C[C@H]1c2cccc(O)c2C(=O)C2=C(O)[C@]3(O)C(=O)C(C(N)=O)=C(O)[C@@H](N(C)C)[C@@H]3[C@@H](O)[C@@H]21 [doxycycline], the “time to reversion of the cardiac phenotype” value ([1]; following the start of treatment with doxycycline) was “within the month”, the “time at which improvement in the ultrasound cardiography parameters is detected” value ([1]; line MR 27, after the start of treatment with doxycycline) was “detected from the first week” and the cardiac interstitial fibrosis [1, 3] was “disappearance”. The “heart weight/body weight ratio” value [1, 3] was “return to normal values”, the ultrasound cardiography parameters [1, 3] was “return to normal values” and the “functional parameters (ultrasound cardiography)” value ([2]; double transgenic animals treated with doxycycline (FIG. 8)) was “restore the normal functional parameters”. For the same compound, the “appearance of the drastic phenotype in male animals” value ([2]; line MR 17, doxycycline continuously in drinking water from gestation) was “avert the appearance of the drastic phenotype” and the “appearance of the interstitial fibrosis” value ([2]; line MR 27, continuous doxycycline from birth) was “prevented”.
